The values below come from US5981729.

The series deals with Athb-12 (full-length, aa 1-235) (Arabidopsis thaliana). Description: EMSA. The conditions noted are these: strong binding; 25 mM HEPES pH 7.6, 1 mM MgCl2, room temp; no binding with translation lacking RNA; protein translated in vitro; label: 32P 5' end.

Construct, isoform or probe ends are uncertain for at least one entry.

With “TCAATTAATTGA (double strand) [EN (Engrailed consensus site)]”, the binding result is reported as “binds”.
